What was measured:
[1] = test system: Staphylococcus aureus MU500; type: cell-based; settings: remaining bacteria of experiment 12 proliferated and treated again
Experimental: (§1) 15′000′000 multi-resistant bacteriae (0.050 ml of a McFarland of 1) were put on 40 mm diameter petri dishes. The petri dishes comprised MH agar with or without antibiotic.
The LED power during 0.02 ms was measured to be 0.63 W on a Thorlabs power sensor with a surface area of 2.2×2.2 mm representing a power of 13 mW/cm^2.
After the irradiation treatment according to experiment 12, remaining bacteria were allowed to proliferate and then were subject to the treatment according to experiment 12 again in order to test for possible new resistances to the treatment. The values in the following table are designated as in experiment 12: […]

[2] = test system: Staphylococcus aureus MU500; assay: Experiment 12: replication on antibiotic agar after pulsed 400 nm irradiation; type: cell-based; settings: antibiotic 10 mg/l; 400 nm LED pulses 0.02 ms, 1 kHz, 10 minutes; 24 hours incubation
Experimental: as §1
[…]. The LED power during 0.02 ms was measured to be 0.63 W on a Thorlabs power sensor with a surface area of 2.2×2.2 mm representing a power of 13 mW/cm^2.

O=C(O)c1cn(C2CC2)c2cc(N3CCNCC3)c(F)cc2c1=O [Ciprofloxacin]
F: Staphylococcus aureus MU500 (irradiation), replication, second treatment [1]: NR (No replication) | F: Staphylococcus aureus MU500 (irradiation), replication [2]: NR (No replication)

From patent US20160120979A1, “METHOD OF APPLYING A COMPOSITION AND PHARMACEUTICAL COMPOSITION WITH A REGIMEN OF ADMINISTERING IT” (priority 2013, published 2016)
